Record: PubChem BioAssay AID686938 (Drosophila RNAi Screening Center, 2013)
In all, the deposit lists about 23,000 reagents; this is an unselected part of those that have a named target and a result. Over the whole deposit, 75 (0.33%) got an active call. 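Raw plate signals without normalisation; calls rest on plate z-scores that were not deposited; ratio present for only 364 wells.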 Names joined by + are all predicted targets of the reagent. Reagent sequences are not shown. Not stated in the record: the dose of the treatment.

- Screen: 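Fly genes required for calcium entry once internal stores are emptied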 (primary screen)
- System: Drosophila S2R+ cells
- Reagents: long dsRNA against Drosophila genes, about 0.25 µg dsRNA per well, roughly 10,000 cells
- Time to read-out: 5 days of knock-down before the calcium assay
- Conditions: thapsigargin (SERCA pump blocker) to empty calcium stores; entry signal taken 4 min after adding it
- Detection: 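Per-well fluo-4 fluorescence in two replicates, unnormalised, measured in resting cells and 4 min after store depletion by the SERCA blocker thapsigargin; ratio of the two present in few wells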
- Scale: calcium entry signal: higher = stronger calcium signal after store depletion; resting calcium signal: higher = higher resting calcium signal
- Hit rule: 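Hit if the duplicate-averaged plate z-score for entry over resting signal is under −3; wells with weak total dye signal (Fmax z < −2) or more than 5 off-targets removed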
- Calls: active = strongly reduced calcium entry; inactive = no strong reduction

Gene | DRSC id | calcium entry signal, replicate 1 (fluorescence units) | calcium entry signal, replicate 2 (fluorescence units) | resting calcium signal, replicate 1 (fluorescence units) | resting calcium signal, replicate 2 (fluorescence units) | Call
CG9839 | DRSC16574 | 3.10e7 | 3.23e7 | 1.40e7 | 1.43e7 | inactive
CG10859 | DRSC02110 | 3.85e7 | – | 1.78e7 | – | inactive
CG10934 | DRSC06017 | 3.10e7 | 2.83e7 | 1.46e7 | 1.45e7 | inactive
CG5819 | DRSC04520 | 4.75e7 | 4.95e7 | 2.21e7 | 2.27e7 | inactive
Rfx | DRSC16820 | 3.58e7 | 3.27e7 | 1.75e7 | 1.70e7 | inactive
tomboy40 | DRSC04918 | 3.70e7 | – | 1.92e7 | – | inactive
APC7 | DRSC17937 | 3.17e7 | 3.68e7 | 1.52e7 | 1.63e7 | inactive
CalpB | DRSC11109 | 4.64e7 | 4.07e7 | 2.79e7 | 1.63e7 | inactive
CG33639 | DRSC19966 | 3.38e7 | 4.14e7 | 1.71e7 | 1.88e7 | inactive
CG33639 | DRSC22820 | 3.01e7 | 3.42e7 | 1.59e7 | 1.77e7 | inactive
CG4768 | DRSC19917 | 2.32e7 | 5.09e7 | 1.10e7 | 2.14e7 | inactive
ApepP | DRSC01866 | 4.58e7 | – | 2.26e7 | – | inactive
CG18268 + CG3014 | DRSC15319 | 3.59e7 | 3.06e7 | 1.90e7 | 1.52e7 | inactive
phr | DRSC07662 | 2.34e7 | 2.93e7 | 1.13e7 | 1.29e7 | inactive
apolpp | DRSC17216 | 3.99e7 | 4.18e7 | 1.71e7 | 1.77e7 | inactive
E(spl)mbeta-HLH | DRSC16697 | 2.51e7 | 3.45e7 | 1.22e7 | 1.52e7 | inactive
CG9294 | DRSC04537 | 4.49e7 | 5.42e7 | 2.16e7 | 2.37e7 | inactive
CG8460 | DRSC03090 | 5.03e7 | – | 3.08e7 | – | inactive
mid | DRSC02977 | 2.57e7 | 4.09e7 | 1.30e7 | 1.85e7 | inactive
mid | DRSC21493 | 3.12e7 | 3.31e7 | 1.65e7 | 1.46e7 | inactive
CG34276 | DRSC15811 | 3.73e7 | 3.42e7 | 1.78e7 | 6.36e7 | inactive
Cyp4c3 | DRSC16631 | 4.19e7 | 3.81e7 | 1.82e7 | 1.80e7 | inactive
RhoGAP5A | DRSC18294 | 2.41e7 | 2.44e7 | 1.10e7 | 1.17e7 | inactive
CG31510 | DRSC14182 | 4.31e7 | 4.90e7 | 2.11e7 | 2.02e7 | inactive
Prosalpha4T2 | DRSC04643 | 4.16e7 | 5.54e7 | 2.09e7 | 2.38e7 | inactive
Tbc1d15-17 | DRSC00313 | 4.60e7 | – | 2.09e7 | – | inactive
CG6066 | DRSC15959 | 4.67e7 | 6.00e7 | 2.47e7 | 2.47e7 | inactive
CG6066 | DRSC22228 | 3.78e7 | 6.72e7 | 1.75e7 | 3.07e7 | inactive
CG7222 | DRSC07019 | 4.79e7 | 4.03e7 | 1.94e7 | 1.92e7 | inactive
CG15578 | DRSC18066 | 3.18e7 | 4.69e7 | 1.52e7 | 2.01e7 | inactive
SIFaR | DRSC13467 | 4.09e7 | 3.41e7 | 2.32e7 | 1.75e7 | inactive
SIFaR | DRSC14266 | 2.94e7 | 3.21e7 | 3.38e7 | 1.33e7 | inactive
CG30373 | DRSC05081 | 2.82e7 | 5.44e7 | 1.53e7 | 2.29e7 | inactive
nrv3 | DRSC03097 | 8.12e7 | 3.32e7 | 4.23e7 | 1.61e7 | inactive
eIF3g2 | DRSC14275 | 4.24e7 | 4.37e7 | 4.53e7 | 1.95e7 | inactive
morgue | DRSC00264 | 4.31e7 | – | 2.49e7 | – | inactive
Arl1 | DRSC09667 | 3.93e7 | 4.67e7 | 2.12e7 | 2.05e7 | inactive
Chro | DRSC11630 | 4.75e7 | 4.97e7 | 2.67e7 | 3.94e7 | inactive
Pep | DRSC11252 | 3.14e7 | 3.97e7 | 1.59e7 | 2.95e7 | inactive
CG33679 | DRSC01436 | 4.81e7 | 3.17e7 | 2.34e7 | 1.47e7 | inactive
CheB93b | DRSC21762 | 3.55e7 | 3.10e7 | 2.06e7 | 1.46e7 | inactive
Obp8a | DRSC17868 | 2.91e7 | 4.63e7 | 1.47e7 | 2.16e7 | inactive
Ubc84D | DRSC12610 | 4.23e7 | 2.75e7 | 2.07e7 | 1.41e7 | inactive
bif | DRSC18901 | 2.97e7 | 2.56e7 | 1.37e7 | 1.18e7 | inactive
bif | DRSC20313 | 2.88e7 | 3.62e7 | 1.31e7 | 1.69e7 | inactive
CG32582 (retired record) | DRSC19114 | 2.85e7 | 3.49e7 | 1.43e7 | 1.54e7 | inactive
Svil | DRSC07981 | 2.50e7 | 4.90e7 | 2.23e7 | 2.19e7 | inactive
Svil | DRSC08296 | 4.24e7 | 3.94e7 | 1.82e7 | 2.02e7 | inactive
Svil | DRSC08332 | 4.30e7 | 4.32e7 | 2.04e7 | 1.89e7 | inactive
Svil | DRSC08333 | 3.72e7 | 3.59e7 | 2.25e7 | 1.76e7 | inactive
Svil | DRSC08494 | 3.92e7 | 3.75e7 | 1.96e7 | 1.78e7 | inactive
CG30428 | DRSC04041 | 3.27e7 | 4.67e7 | 1.67e7 | 2.13e7 | inactive
CARPB | DRSC18437 | 4.07e7 | 3.59e7 | 1.92e7 | 1.81e7 | inactive
CARPB | DRSC18438 | 3.37e7 | 4.62e7 | 1.60e7 | 2.02e7 | inactive
mRpS22 | DRSC14488 | 5.27e7 | 6.33e7 | 2.09e7 | 2.61e7 | inactive
CG33770 | DRSC11717 | 3.12e7 | 4.60e7 | 1.50e7 | 2.00e7 | inactive
CG6179 | DRSC19973 | 5.11e7 | 3.52e7 | 2.29e7 | 1.50e7 | inactive
Asx | DRSC05924 | 2.19e7 | 4.05e7 | 1.16e7 | 1.83e7 | inactive
smp-30 | DRSC17059 | 3.21e7 | 5.70e7 | 1.63e7 | 7.40e7 | inactive
Faa | DRSC08451 | 4.76e7 | 2.90e7 | 3.04e7 | 1.31e7 | inactive
CG10254 | DRSC14153 | 4.10e7 | 3.34e7 | 1.82e7 | 1.53e7 | inactive
Klp54D | DRSC07450 | 5.15e7 | 5.26e7 | 2.25e7 | 2.28e7 | inactive
CG8960 | DRSC08612 | 4.11e7 | 3.97e7 | 2.09e7 | 1.99e7 | inactive
UQCR-14 | DRSC19870 | 3.96e7 | 3.18e7 | 2.02e7 | 1.61e7 | inactive
Pex11c | DRSC14677 | 3.26e7 | 5.80e7 | 1.93e7 | 2.28e7 | inactive
muc | DRSC02832 | 4.03e7 | 3.72e7 | 1.98e7 | 1.83e7 | inactive
muc | DRSC21940 | 4.28e7 | 6.44e7 | 2.04e7 | 3.23e7 | inactive
CG5071 | DRSC15710 | 3.54e7 | 3.73e7 | 1.72e7 | 1.71e7 | inactive
CG5071 | DRSC22570 | 4.76e7 | 3.52e7 | 2.20e7 | 1.64e7 | inactive
CG7988 | DRSC16358 | 4.31e7 | 4.08e7 | 5.71e7 | 1.77e7 | inactive
bsd | DRSC05953 | 1.51e7 | 2.81e7 | 9.70e6 | 1.47e7 | inactive
CG13151 | DRSC06276 | 3.10e7 | 3.59e7 | 1.69e7 | 1.71e7 | inactive
CG1314 | DRSC20495 | 4.06e7 | 4.94e7 | 1.88e7 | 1.99e7 | inactive
amrt | DRSC19378 | 1.65e7 | 1.96e7 | 1.00e7 | 1.05e7 | inactive
CG10182 | DRSC14202 | 4.11e7 | 5.61e7 | 1.76e7 | 2.18e7 | inactive
